Measured data: PubChem BioAssay AID1224828 (NIAID, 2016)
Aim: 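Knock-downs that increase or decrease LPS-induced p65 nuclear translocation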 (primary screen). Cell system: mouse RAW264.7 G9 macrophage reporter cells (GFP-p65, Tnf promoter-mCherry). Reagents: siRNA pool against mouse genes, 100 nM. Duration: 2 days siRNA transfection, then 40 min LPS before fixation. Conditions: LPS (Salmonella minnesota R595) at 10 ng/ml. Measurement: 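Imaged p65 nuclear translocation ratio, normalised to the plate median, converted to robust z-scores and averaged across two replicates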. Scale: p65 translocation robust z-score: higher = more nuclear NF-kappaB p65 after LPS than the plate median; nuclear/cytoplasmic p65 ratio: higher = more nuclear NF-kappaB p65. Active means: 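Active if robust z is above 3.3 (negative regulators) or below -1.56, the Tlr4 control median (positive regulators); activity score 50 or more; control wells not called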. Meaning of the calls: active = hit (p65 shift raised or lowered); inactive = no clear change.
In all, the deposit lists about 17,000 reagents; below is a part drawn at random. 762 of them (4.5%) were called active. 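Active calls include both raised and lowered p65 entry, mostly lowered; wells with fewer than 50 cells lack a z-score.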 Raw values are not corrected between plates. Entries without a mark were called inactive.

Knock-down of Fbxl14 (F-box and leucine-rich repeat protein 14) resulted in: nuclear/cytoplasmic p65 ratio, rep 1 = 1.26; nuclear/cytoplasmic p65 ratio, rep 2 = 1.57; low cell count flag fewer than 50 cells per well; well left out of scoring.
After knock-down of Rbmy (RNA binding motif protein, Y chromosome), the record shows p65 translocation robust z-score 0.61; nuclear/cytoplasmic p65 ratio, rep 1 = 1.57; nuclear/cytoplasmic p65 ratio, rep 2 = 1.64; low cell count flag enough cells to score.
With knock-down of S100a5 (S100 calcium binding protein A5) the results were p65 translocation robust z-score -0.14; nuclear/cytoplasmic p65 ratio, rep 1 = 1.56; nuclear/cytoplasmic p65 ratio, rep 2 = 1.44; low cell count flag enough cells to score.
After knock-down of Epgn (epithelial mitogen), the record shows p65 translocation robust z-score 0.2; nuclear/cytoplasmic p65 ratio, rep 1 = 1.64; nuclear/cytoplasmic p65 ratio, rep 2 = 1.47; low cell count flag enough cells to score.
For Rb1 (RB transcriptional corepressor 1), the entry reads p65 translocation robust z-score 0.13; nuclear/cytoplasmic p65 ratio, rep 1 = 1.57; nuclear/cytoplasmic p65 ratio, rep 2 = 1.5; low cell count flag enough cells to score.
After knock-down of Gstt4 (glutathione S-transferase, theta 4), the screen gave nuclear/cytoplasmic p65 ratio, rep 1 = 0.986; nuclear/cytoplasmic p65 ratio, rep 2 = 1.1; low cell count flag fewer than 50 cells per well; well left out of scoring.
After knock-down of Cdk8 (cyclin dependent kinase 8), the record shows p65 translocation robust z-score 0.8; nuclear/cytoplasmic p65 ratio, rep 1 = 1.84; nuclear/cytoplasmic p65 ratio, rep 2 = 1.47; low cell count flag enough cells to score.
After knock-down of Il22 (interleukin 22) the results were p65 translocation robust z-score -0.21; nuclear/cytoplasmic p65 ratio, rep 1 = 1.41; nuclear/cytoplasmic p65 ratio, rep 2 = 1.39; low cell count flag enough cells to score.
Ddx39b (DEAD box helicase 39b) scored p65 translocation robust z-score -0.46; nuclear/cytoplasmic p65 ratio, rep 1 = 1.53; nuclear/cytoplasmic p65 ratio, rep 2 = 1.74; low cell count flag enough cells to score.
Tas2r107 (taste receptor, type 2, member 107) gave p65 translocation robust z-score 0.34; nuclear/cytoplasmic p65 ratio, rep 1 = 1.54; nuclear/cytoplasmic p65 ratio, rep 2 = 1.66; low cell count flag enough cells to score.
For Riok3 (RIO kinase 3), the entry reads p65 translocation robust z-score -0.56; nuclear/cytoplasmic p65 ratio, rep 1 = 1.68; nuclear/cytoplasmic p65 ratio, rep 2 = 1.24; low cell count flag enough cells to score.
After knock-down of Ddc (dopa decarboxylase) the results were p65 translocation robust z-score 0.2; nuclear/cytoplasmic p65 ratio, rep 1 = 1.45; nuclear/cytoplasmic p65 ratio, rep 2 = 1.46; low cell count flag enough cells to score.
Depletion of Slco2b1 came out at: nuclear/cytoplasmic p65 ratio, rep 1 = 1.17; nuclear/cytoplasmic p65 ratio, rep 2 = 1.04; low cell count flag fewer than 50 cells per well; well left out of scoring.
Against Utp4 (UTP4 small subunit processome component) the deposit lists p65 translocation robust z-score -0.88; nuclear/cytoplasmic p65 ratio, rep 1 = 1.36; nuclear/cytoplasmic p65 ratio, rep 2 = 1.43; low cell count flag enough cells to score.
For Wnt2b (wingless-type MMTV integration siteWNT) the deposit lists p65 translocation robust z-score -0.19; nuclear/cytoplasmic p65 ratio, rep 1 = 1.55; nuclear/cytoplasmic p65 ratio, rep 2 = 1.62; low cell count flag enough cells to score.
With knock-down of Cldn13 (claudin 13), the record shows p65 translocation robust z-score -1.11; nuclear/cytoplasmic p65 ratio, rep 1 = 1.42; nuclear/cytoplasmic p65 ratio, rep 2 = 1.6; low cell count flag enough cells to score.
For H2ac6 (H2A clustered histone 6), the values are p65 translocation robust z-score 0.23; nuclear/cytoplasmic p65 ratio, rep 1 = 1.63; nuclear/cytoplasmic p65 ratio, rep 2 = 1.42; low cell count flag enough cells to score.
Silencing of Fmo5 (flavin containing monooxygenase 5) gave: p65 translocation robust z-score -0.26; nuclear/cytoplasmic p65 ratio, rep 1 = 1.34; nuclear/cytoplasmic p65 ratio, rep 2 = 1.36; low cell count flag enough cells to score.
Knock-down of Cpa6 (carboxypeptidase A6) came out at: p65 translocation robust z-score 0.66; nuclear/cytoplasmic p65 ratio, rep 1 = 1.74; nuclear/cytoplasmic p65 ratio, rep 2 = 1.68; low cell count flag enough cells to score.
Ro60 (Ro60, Y RNA binding protein) scored p65 translocation robust z-score -0.1; nuclear/cytoplasmic p65 ratio, rep 1 = 1.44; nuclear/cytoplasmic p65 ratio, rep 2 = 1.19; low cell count flag enough cells to score.
For Dlx6 (distal-less homeobox 6), the values are p65 translocation robust z-score -1.91 (active); nuclear/cytoplasmic p65 ratio, rep 1 = 1.21; nuclear/cytoplasmic p65 ratio, rep 2 = 1.14; low cell count flag enough cells to score.
With knock-down of Hsd17b12 (hydroxysteroid (17-beta) dehydrogenase 12), the screen gave p65 translocation robust z-score -0.85; nuclear/cytoplasmic p65 ratio, rep 1 = 1.34; nuclear/cytoplasmic p65 ratio, rep 2 = 1.25; low cell count flag enough cells to score.
After knock-down of Lman1l (lectin, mannose-binding 1 like), the screen gave p65 translocation robust z-score -0.17; nuclear/cytoplasmic p65 ratio, rep 1 = 1.58; nuclear/cytoplasmic p65 ratio, rep 2 = 1.78; low cell count flag enough cells to score.
For Fam222b (family with sequence similarity 222, member B), the entry reads p65 translocation robust z-score 0.02; nuclear/cytoplasmic p65 ratio, rep 1 = 1.54; nuclear/cytoplasmic p65 ratio, rep 2 = 1.9; low cell count flag enough cells to score.
Bysl (bystin-like) gave p65 translocation robust z-score -0.56; nuclear/cytoplasmic p65 ratio, rep 1 = 1.4; nuclear/cytoplasmic p65 ratio, rep 2 = 1.4; low cell count flag enough cells to score.
With knock-down of Rragc (Ras-related GTP binding C) the results were p65 translocation robust z-score 0.23; nuclear/cytoplasmic p65 ratio, rep 1 = 1.48; nuclear/cytoplasmic p65 ratio, rep 2 = 1.22; low cell count flag enough cells to score.
Depletion of Jmjd4 (jumonji domain containing 4) gave: p65 translocation robust z-score -0.25; nuclear/cytoplasmic p65 ratio, rep 1 = 1.47; nuclear/cytoplasmic p65 ratio, rep 2 = 1.57; low cell count flag enough cells to score.
